Experimental data: PubChem BioAssay AID602203 (INSERM, 2012)

Test: 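Follow-up of knock-downs that sensitize or protect A549 cells against cisplatin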 (follow-up of hits)
Cells: human A549 lung cancer cells
Knock-down reagent: siRNA pair against human genes
Conditions: cisplatin at a dose killing half of control-siRNA cells, given 48 h after transfection
Measurement: 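Cisplatin at a dose killing 50% of control cells, 48 h post-transfection; each siRNA +1 protective, -1 sensitizing, 0 if toxic (LDH) or antiproliferative (WST-1); per-gene sum and mean death change versus control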
Scale: summed siRNA score for cisplatin death: higher = more siRNAs reduced cisplatin-induced cell death; change in cisplatin death versus control: higher = fewer cells died than in control
Units: change in cisplatin death versus control in percentage points
Rule for the call: In these data the active calls have summed siRNA score for cisplatin death at about -3 or lower, or at about 3 or higher
Shown is one part, drawn at random, of 999 reagents. 85 of them (8.5%) count as active. 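Unclear how single-siRNA scores of -1, 0 or +1 give the printed -4 to 4 range; calls lie near -3 or 3 and beyond.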 Unmarked entries are inactive. No sequences are given here. The record does not give: the amount of reagent, the time to read-out, the dose of the treatment.

PAK2 (p21 (RAC1) activated kinase 2) showed summed siRNA score for cisplatin death 1.
Against NUP35 (nucleoporin 35) the deposit lists summed siRNA score for cisplatin death -1.
Depletion of DPY19L3-DT (DPY19L3 divergent transcript) gave: summed siRNA score for cisplatin death 2.
MBD3L2 (methyl-CpG binding domain protein 3 like 2) scored summed siRNA score for cisplatin death 0.
Knock-down of LOC283389 came out at: summed siRNA score for cisplatin death -1.
Depletion of CASC2 (cancer susceptibility 2) came out at: summed siRNA score for cisplatin death 1.
Against PIKFYVE (phosphoinositide kinase, FYVE-type zinc finger containing) the deposit lists summed siRNA score for cisplatin death 2.
LOC402300 scored summed siRNA score for cisplatin death 0.
After knock-down of OR52L1 (olfactory receptor family 52 subfamily L member 1), the screen gave summed siRNA score for cisplatin death 0.
Silencing of ADGRE4P (adhesion G protein-coupled receptor E4, pseudogene) came out at: summed siRNA score for cisplatin death 1.
ISG20 (interferon stimulated exonuclease gene 20) gave summed siRNA score for cisplatin death 1.
Against PLCH1 (phospholipase C eta 1), the values are summed siRNA score for cisplatin death -1.
For ADIPOR2 (adiponectin receptor 2), the values are summed siRNA score for cisplatin death -1.
RUFY4 (RUN and FYVE domain containing 4) gave summed siRNA score for cisplatin death -1.
Against TCF7L2 (transcription factor 7 like 2) the deposit lists summed siRNA score for cisplatin death -1.
With knock-down of USP50 (ubiquitin specific peptidase 50), the record shows summed siRNA score for cisplatin death 0.
With knock-down of LOC391784, the screen gave summed siRNA score for cisplatin death 2.
Against MSRA (methionine sulfoxide reductase A), the values are summed siRNA score for cisplatin death -1.
Silencing of RNF139 (ring finger protein 139) came out at: summed siRNA score for cisplatin death -1.
Silencing of IFNG (interferon gamma) gave: summed siRNA score for cisplatin death -2.
With knock-down of TPM3 (tropomyosin 3), the record shows summed siRNA score for cisplatin death 1.
Depletion of GUCY1A2 (guanylate cyclase 1 soluble subunit alpha 2) resulted in: summed siRNA score for cisplatin death -2.
With knock-down of CDH20 (cadherin 20), the record shows summed siRNA score for cisplatin death 0.
After knock-down of DCLK2 (doublecortin like kinase 2) the results were summed siRNA score for cisplatin death 1.
After knock-down of S1PR3 (sphingosine-1-phosphate receptor 3), the record shows summed siRNA score for cisplatin death -1.
ECH1 (enoyl-CoA hydratase 1) scored summed siRNA score for cisplatin death 1.
With knock-down of CLPP, the screen gave summed siRNA score for cisplatin death 0.
With knock-down of LOC387854, the record shows summed siRNA score for cisplatin death 0.
With knock-down of SLC9A4, the record shows summed siRNA score for cisplatin death 0.
IMPACT (impact RWD domain protein) scored summed siRNA score for cisplatin death -2.
For LOC221875, the entry reads summed siRNA score for cisplatin death -1.
NBPF14 (NBPF member 14) showed summed siRNA score for cisplatin death 1.
Against ENAM (enamelin), the values are summed siRNA score for cisplatin death 2.
Against KCNE4, the entry reads summed siRNA score for cisplatin death -1.
Silencing of RO60 (Ro60, Y RNA binding protein) gave: summed siRNA score for cisplatin death 0.
Against RAB11FIP2 (RAB11 family interacting protein 2), the entry reads summed siRNA score for cisplatin death -1.
Knock-down of MYORG (myogenesis regulating glycosidase) came out at: summed siRNA score for cisplatin death -3 (active); change in cisplatin death versus control -4.94.
Depletion of LOC388954 came out at: summed siRNA score for cisplatin death -2.
After knock-down of KCNJ2 (potassium inwardly rectifying channel subfamily J member 2), the screen gave summed siRNA score for cisplatin death -2.
LOC389873 gave summed siRNA score for cisplatin death 0.
For OSBPL5 (oxysterol binding protein like 5) the deposit lists summed siRNA score for cisplatin death 2.
After knock-down of FLJ40288 (Putative uncharacterized protein FLJ40288), the record shows summed siRNA score for cisplatin death 2.
Knock-down of ZNF80 (zinc finger protein 80) resulted in: summed siRNA score for cisplatin death 0.
Against LOC196266, the values are summed siRNA score for cisplatin death 2.
Against MMP2 (matrix metallopeptidase 2) the deposit lists summed siRNA score for cisplatin death 0.
ATP6V1C1 (ATPase H+ transporting V1 subunit C1) showed summed siRNA score for cisplatin death 2.
With knock-down of OR5H1 (olfactory receptor family 5 subfamily H member 1) the results were summed siRNA score for cisplatin death 1.

3 entries already listed, arranged by “summed siRNA score for cisplatin death”, lowest first.
PLCH1 (phospholipase C eta 1) | summed siRNA score for cisplatin death = -1
ADGRE4P (adhesion G protein-coupled receptor E4, pseudogene) | summed siRNA score for cisplatin death = 1
ISG20 (interferon stimulated exonuclease gene 20) | summed siRNA score for cisplatin death = 1
